Source: US20220119540A1 (NANJING GENSCRIPT BIOTECH, published 2022)
No constants are given. Whether binding was seen depends on the method and setting. Some results given as binding are weak or reduced against the parent protein; the word gives no strength. Where a sequence is shown, tags or fusion partners need not be part of it.

Columns and labels:
[1] = molecular target: T1, Recombinant human OX40-His protein (human, UniProt P43489 29-214, limits assumed); experiment: SPR (Biacore 8K); OX40-HIS amine-coupled to the chip, antibody injected at 2.5-80 nM for 200 s, 400 s dissociation; 1:1 binding fit overlaid
T1 construct: Recombinant antigen protein; also called recombinant human OX-40 protein; human OX-40 protein; not shown: His tag
T1 sequence (looked up): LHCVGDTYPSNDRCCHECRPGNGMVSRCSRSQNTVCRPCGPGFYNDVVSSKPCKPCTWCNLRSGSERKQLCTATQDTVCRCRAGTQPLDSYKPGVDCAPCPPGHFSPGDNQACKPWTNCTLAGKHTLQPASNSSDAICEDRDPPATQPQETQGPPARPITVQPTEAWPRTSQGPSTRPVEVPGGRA

[2] = molecular target: T1, Recombinant human OX40-His protein; experiment: ELISA; plate coated with recombinant human OX-40 (OX40-His), antibody from 1000 ng/ml in 3-fold dilutions, HRP goat anti-human Fab, OD450
[3] = molecular target: T1, Recombinant human OX40-His protein; experiment: ELISA on coated recombinant protein

binding [1]: binds
binding [2]: binds
binding [3]: binds
B1: Chimeric antibody (anti-human OX40, recombinant, human IgG1/kappa constant regions) (antibody, V domains shown)
VH: QIQLVQSGPELKKPGETVKISCKASGYTFTDYSMHWVKQAPGKGLKWMGWISTETGEPTYADDFKGRFAFSLETSASTAYLQIKNLKNEDTASYFCARVRPWYLAVWGAGTTVTVSS
VL: DIQMTQTTSSLSASLGDRVTISCRASQDISNYLNWYQQKPDGTVKLLIYYTSRLYSGVPSRFSGSGSGADYSLTVSNLEQEDIATYFCQQANTLPLTFGAGTKLELK
